Results are given in words; binding and its absence hold for the method and conditions named. In cells and extracts the contact can be indirect. Some entries that bind do so weakly or less than the wild type. Tags and fused reporters may be left off the sequences shown.
What was measured:
[1] = target: GRIP (UniProt P97879); test: co-immunoprecipitation (anti-Flag) from co-transfected HEK 293T cells, anti-GRIP western blot
[2] = target: myc-tagged PICK1 (UniProt Q62083); test: co-immunoprecipitation from HEK 293T cells co-transfected with myc-tagged PICK1 and Flag-tagged GPR10
[3] = target: myc-tagged ABP (AMPA binding protein) (UniProt Q9WTW1); test: co-immunoprecipitation from HEK 293T cells stably expressing Flag-tagged GPR10, transfected with myc-tagged ABP
[4] = target: 6X-Histidine tagged GRIP PDZ domain segment 4-6 (UniProt P97879); test: co-immunoprecipitation of 6X-His tagged GRIP PDZ segments with Flag-tagged GPR10
[5] = target: GRIP (UniProt P97879); test: co-immunoprecipitation of alanine point mutants of Flag-tagged GPR10 with GRIP, HEK 293T cells

By UniProt entry, the sequences of proteins in these tests, tags left out. Where a name states a change or a piece, a line headed by the entry shows the natural chain unless it says otherwise. Chains listed by the source or under a name are the forms on record and can include a tag or linker. Residues count along the entry.
UniProt P97879: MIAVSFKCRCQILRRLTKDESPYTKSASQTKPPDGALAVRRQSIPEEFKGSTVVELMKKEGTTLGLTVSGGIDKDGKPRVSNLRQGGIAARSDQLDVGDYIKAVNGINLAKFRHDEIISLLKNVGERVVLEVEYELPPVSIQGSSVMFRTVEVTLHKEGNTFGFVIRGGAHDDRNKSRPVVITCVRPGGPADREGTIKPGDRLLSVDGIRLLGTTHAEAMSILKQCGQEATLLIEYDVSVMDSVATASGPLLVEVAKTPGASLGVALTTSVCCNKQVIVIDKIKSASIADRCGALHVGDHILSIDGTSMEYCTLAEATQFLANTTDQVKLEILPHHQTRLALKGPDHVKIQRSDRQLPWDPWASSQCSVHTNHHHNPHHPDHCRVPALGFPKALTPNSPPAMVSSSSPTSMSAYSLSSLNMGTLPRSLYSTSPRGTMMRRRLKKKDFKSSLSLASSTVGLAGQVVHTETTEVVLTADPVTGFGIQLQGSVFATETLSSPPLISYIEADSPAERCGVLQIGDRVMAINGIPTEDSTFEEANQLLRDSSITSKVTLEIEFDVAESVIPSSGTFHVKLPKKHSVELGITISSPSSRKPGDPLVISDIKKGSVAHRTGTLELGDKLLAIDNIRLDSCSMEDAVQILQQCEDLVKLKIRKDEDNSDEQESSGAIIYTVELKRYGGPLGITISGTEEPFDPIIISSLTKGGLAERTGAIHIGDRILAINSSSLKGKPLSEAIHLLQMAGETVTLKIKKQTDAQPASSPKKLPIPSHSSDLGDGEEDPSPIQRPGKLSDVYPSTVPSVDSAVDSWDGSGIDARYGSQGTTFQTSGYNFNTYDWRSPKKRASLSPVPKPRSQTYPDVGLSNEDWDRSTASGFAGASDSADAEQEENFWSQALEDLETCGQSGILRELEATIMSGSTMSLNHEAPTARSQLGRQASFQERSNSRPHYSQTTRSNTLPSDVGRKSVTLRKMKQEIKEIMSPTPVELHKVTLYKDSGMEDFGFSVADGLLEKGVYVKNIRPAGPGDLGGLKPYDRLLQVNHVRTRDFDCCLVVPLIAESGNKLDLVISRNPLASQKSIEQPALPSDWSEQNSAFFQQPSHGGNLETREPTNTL
6X-Histidine tagged GRIP PDZ domain segment 4-6: residues 465-760 of P97879
UniProt Q62083: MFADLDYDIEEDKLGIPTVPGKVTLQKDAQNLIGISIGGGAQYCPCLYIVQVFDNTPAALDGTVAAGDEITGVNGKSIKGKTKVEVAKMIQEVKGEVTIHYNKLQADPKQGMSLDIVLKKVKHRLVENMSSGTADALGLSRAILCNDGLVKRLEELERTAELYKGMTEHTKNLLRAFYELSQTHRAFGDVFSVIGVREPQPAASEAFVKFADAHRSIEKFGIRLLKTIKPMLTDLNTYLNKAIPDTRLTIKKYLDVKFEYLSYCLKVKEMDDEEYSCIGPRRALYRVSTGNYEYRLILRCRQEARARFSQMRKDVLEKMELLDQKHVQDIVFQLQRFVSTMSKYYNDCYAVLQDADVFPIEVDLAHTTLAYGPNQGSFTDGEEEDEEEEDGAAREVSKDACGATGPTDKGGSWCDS
myc-tagged ABP (AMPA binding protein) (Q9WTW1, form named): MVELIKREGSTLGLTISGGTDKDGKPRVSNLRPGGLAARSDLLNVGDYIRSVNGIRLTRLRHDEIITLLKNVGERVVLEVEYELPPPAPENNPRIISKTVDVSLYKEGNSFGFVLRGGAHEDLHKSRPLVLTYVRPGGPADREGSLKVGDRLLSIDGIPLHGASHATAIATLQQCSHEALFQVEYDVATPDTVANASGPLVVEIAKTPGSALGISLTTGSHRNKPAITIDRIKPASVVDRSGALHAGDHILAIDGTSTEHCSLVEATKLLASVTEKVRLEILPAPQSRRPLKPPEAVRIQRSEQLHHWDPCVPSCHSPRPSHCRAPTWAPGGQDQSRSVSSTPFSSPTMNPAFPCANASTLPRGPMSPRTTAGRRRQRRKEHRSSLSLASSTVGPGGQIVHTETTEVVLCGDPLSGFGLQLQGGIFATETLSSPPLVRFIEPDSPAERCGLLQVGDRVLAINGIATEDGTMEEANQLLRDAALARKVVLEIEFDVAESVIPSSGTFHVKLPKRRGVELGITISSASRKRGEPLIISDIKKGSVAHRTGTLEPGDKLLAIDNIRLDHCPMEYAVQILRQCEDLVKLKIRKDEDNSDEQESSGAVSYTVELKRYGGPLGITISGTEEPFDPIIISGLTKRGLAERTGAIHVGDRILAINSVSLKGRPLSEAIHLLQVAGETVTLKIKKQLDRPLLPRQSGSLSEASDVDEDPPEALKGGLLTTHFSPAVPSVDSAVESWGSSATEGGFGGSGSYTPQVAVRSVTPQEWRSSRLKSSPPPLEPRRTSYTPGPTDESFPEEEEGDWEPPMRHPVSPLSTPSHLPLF

Binder | binding [1] | binding [2] | binding [3] | binding [4] | binding [5]
Flag-tagged GPR10 (wild type) (receptor, UniProt P49683 1-370, looked up, not shown: small tags and cut ends) MASSTTRGPRVSDLFSGLPPAVTTPANQSAEASAGNGSVAGADAPAVTPFQSLQLVHQLKGLIVLLYSVVVVVGLVGNCLLVLVIARVRRLHNVTNFLIGNLALSDVLMCTACVPLTLAYAFEPRGWVFGGGLCHLVFFLQPVTVYVSVFTLTTIAVDRYVVLVHPLRRRISLRLSAYAVLAIWALSAVLALPAAVHTYHVELKPHDVRLCEEFWGSQERQRQLYAWGLLLVTYLLPLLVILLSYVRVSVKLRNRVVPGCVTQSQADWDRARRRRTFCLLVVIVVVFAVCWLPLHVFNLLRDLDPHAIDPYAFGLVQLLCHWLAMSSACYNPFIYAWLHDSFREELRKLLVAWPRKIAPHGQNMTVSVVI | binds | binds | binds | binds | 
Flag-tagged GPR10 T365A (receptor, UniProt P49683 1-370, looked up, not shown: small tags and cut ends) MASSTTRGPRVSDLFSGLPPAVTTPANQSAEASAGNGSVAGADAPAVTPFQSLQLVHQLKGLIVLLYSVVVVVGLVGNCLLVLVIARVRRLHNVTNFLIGNLALSDVLMCTACVPLTLAYAFEPRGWVFGGGLCHLVFFLQPVTVYVSVFTLTTIAVDRYVVLVHPLRRRISLRLSAYAVLAIWALSAVLALPAAVHTYHVELKPHDVRLCEEFWGSQERQRQLYAWGLLLVTYLLPLLVILLSYVRVSVKLRNRVVPGCVTQSQADWDRARRRRTFCLLVVIVVVFAVCWLPLHVFNLLRDLDPHAIDPYAFGLVQLLCHWLAMSSACYNPFIYAWLHDSFREELRKLLVAWPRKIAPHGQNMAVSVVI |  |  |  |  | binds
Flag-tagged GPR10 V366A (receptor, UniProt P49683 1-370, looked up, not shown: small tags and cut ends) MASSTTRGPRVSDLFSGLPPAVTTPANQSAEASAGNGSVAGADAPAVTPFQSLQLVHQLKGLIVLLYSVVVVVGLVGNCLLVLVIARVRRLHNVTNFLIGNLALSDVLMCTACVPLTLAYAFEPRGWVFGGGLCHLVFFLQPVTVYVSVFTLTTIAVDRYVVLVHPLRRRISLRLSAYAVLAIWALSAVLALPAAVHTYHVELKPHDVRLCEEFWGSQERQRQLYAWGLLLVTYLLPLLVILLSYVRVSVKLRNRVVPGCVTQSQADWDRARRRRTFCLLVVIVVVFAVCWLPLHVFNLLRDLDPHAIDPYAFGLVQLLCHWLAMSSACYNPFIYAWLHDSFREELRKLLVAWPRKIAPHGQNMTASVVI |  |  |  |  | binds
Flag-tagged GPR10 V369A (receptor, UniProt P49683 1-370, looked up, not shown: small tags and cut ends) MASSTTRGPRVSDLFSGLPPAVTTPANQSAEASAGNGSVAGADAPAVTPFQSLQLVHQLKGLIVLLYSVVVVVGLVGNCLLVLVIARVRRLHNVTNFLIGNLALSDVLMCTACVPLTLAYAFEPRGWVFGGGLCHLVFFLQPVTVYVSVFTLTTIAVDRYVVLVHPLRRRISLRLSAYAVLAIWALSAVLALPAAVHTYHVELKPHDVRLCEEFWGSQERQRQLYAWGLLLVTYLLPLLVILLSYVRVSVKLRNRVVPGCVTQSQADWDRARRRRTFCLLVVIVVVFAVCWLPLHVFNLLRDLDPHAIDPYAFGLVQLLCHWLAMSSACYNPFIYAWLHDSFREELRKLLVAWPRKIAPHGQNMTVSVAI |  |  |  |  | binds
